From article PMC5129514
These are yes or no findings as the source states them, for the method shown. Binding seen in cells or lysates may run through a third protein. Here binding means that the protein was enriched with, or labelled near, the bait; the list need not be complete. For some assays here: A no says only that the protein was not detected with the bait.

Amino acid sequences for entries named in this document (tags omitted). A change or cut given only in a name is not applied to a line headed by its entry. Chains listed by the source or under a name are the forms on record and can include a tag or linker. Residues count along the entry.
UniProt Q3UVX5, residues 19-1203: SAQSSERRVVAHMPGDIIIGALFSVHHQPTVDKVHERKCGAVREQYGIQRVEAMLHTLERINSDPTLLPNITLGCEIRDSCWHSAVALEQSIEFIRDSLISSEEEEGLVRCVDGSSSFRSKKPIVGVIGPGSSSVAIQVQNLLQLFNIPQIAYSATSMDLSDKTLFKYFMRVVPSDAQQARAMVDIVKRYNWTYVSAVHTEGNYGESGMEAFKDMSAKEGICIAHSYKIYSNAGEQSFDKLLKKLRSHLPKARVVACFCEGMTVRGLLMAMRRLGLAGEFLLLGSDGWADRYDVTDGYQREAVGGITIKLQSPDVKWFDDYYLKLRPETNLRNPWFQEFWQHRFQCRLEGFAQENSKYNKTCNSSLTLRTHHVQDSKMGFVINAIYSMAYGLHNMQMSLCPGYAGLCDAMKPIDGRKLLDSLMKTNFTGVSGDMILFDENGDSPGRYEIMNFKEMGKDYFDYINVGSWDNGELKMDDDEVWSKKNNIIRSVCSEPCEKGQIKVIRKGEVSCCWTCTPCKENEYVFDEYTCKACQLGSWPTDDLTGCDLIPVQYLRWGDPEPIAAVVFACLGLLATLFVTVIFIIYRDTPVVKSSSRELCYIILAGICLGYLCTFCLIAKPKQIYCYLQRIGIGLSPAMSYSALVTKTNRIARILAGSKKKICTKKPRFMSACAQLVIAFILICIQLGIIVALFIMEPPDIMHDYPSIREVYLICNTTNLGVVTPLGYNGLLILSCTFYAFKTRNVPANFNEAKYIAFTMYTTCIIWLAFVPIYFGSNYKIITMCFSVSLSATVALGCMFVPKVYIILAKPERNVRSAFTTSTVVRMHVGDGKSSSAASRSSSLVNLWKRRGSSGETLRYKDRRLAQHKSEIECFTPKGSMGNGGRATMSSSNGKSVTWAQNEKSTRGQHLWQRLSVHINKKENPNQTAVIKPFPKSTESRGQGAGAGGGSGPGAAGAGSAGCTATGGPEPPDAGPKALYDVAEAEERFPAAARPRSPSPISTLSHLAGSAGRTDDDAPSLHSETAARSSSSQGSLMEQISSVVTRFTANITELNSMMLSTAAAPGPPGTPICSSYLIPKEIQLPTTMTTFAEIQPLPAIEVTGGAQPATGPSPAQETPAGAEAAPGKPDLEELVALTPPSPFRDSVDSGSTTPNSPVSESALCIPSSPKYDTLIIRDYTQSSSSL
metabotropic glutamate receptor 1, isoform a (mouse (endogenous in hippocampus and cortex)) (P97772, residues 21-1199): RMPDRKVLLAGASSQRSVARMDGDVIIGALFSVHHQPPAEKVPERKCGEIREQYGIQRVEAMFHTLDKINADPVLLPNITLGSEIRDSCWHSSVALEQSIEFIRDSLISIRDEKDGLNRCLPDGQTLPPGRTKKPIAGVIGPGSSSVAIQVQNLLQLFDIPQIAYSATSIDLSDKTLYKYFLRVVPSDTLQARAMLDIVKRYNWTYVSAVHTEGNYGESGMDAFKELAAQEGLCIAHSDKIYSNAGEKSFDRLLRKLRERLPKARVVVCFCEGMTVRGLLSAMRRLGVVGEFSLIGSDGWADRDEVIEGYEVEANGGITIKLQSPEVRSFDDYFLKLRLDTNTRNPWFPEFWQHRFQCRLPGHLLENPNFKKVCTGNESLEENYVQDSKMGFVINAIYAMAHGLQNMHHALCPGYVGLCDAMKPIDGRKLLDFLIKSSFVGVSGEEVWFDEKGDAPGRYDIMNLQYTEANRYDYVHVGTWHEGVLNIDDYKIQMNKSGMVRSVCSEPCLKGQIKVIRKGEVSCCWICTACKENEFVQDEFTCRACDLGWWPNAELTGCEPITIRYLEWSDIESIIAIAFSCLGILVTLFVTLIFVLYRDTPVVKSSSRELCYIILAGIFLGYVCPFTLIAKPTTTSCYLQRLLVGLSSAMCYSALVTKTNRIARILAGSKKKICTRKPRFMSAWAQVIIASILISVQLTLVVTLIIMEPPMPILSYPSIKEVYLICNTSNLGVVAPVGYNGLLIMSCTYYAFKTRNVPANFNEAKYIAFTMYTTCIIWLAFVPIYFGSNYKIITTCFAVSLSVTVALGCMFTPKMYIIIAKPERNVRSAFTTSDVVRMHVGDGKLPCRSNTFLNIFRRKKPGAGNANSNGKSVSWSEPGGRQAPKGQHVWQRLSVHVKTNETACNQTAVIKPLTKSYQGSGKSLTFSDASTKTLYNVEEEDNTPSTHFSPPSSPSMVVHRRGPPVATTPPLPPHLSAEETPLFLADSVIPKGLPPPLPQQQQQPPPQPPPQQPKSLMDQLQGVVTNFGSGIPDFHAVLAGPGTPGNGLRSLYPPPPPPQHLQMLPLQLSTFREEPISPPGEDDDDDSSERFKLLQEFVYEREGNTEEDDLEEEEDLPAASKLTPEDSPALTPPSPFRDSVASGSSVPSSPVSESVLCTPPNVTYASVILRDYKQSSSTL
metabotropic glutamate receptor 1, isoform b (P97772, form named): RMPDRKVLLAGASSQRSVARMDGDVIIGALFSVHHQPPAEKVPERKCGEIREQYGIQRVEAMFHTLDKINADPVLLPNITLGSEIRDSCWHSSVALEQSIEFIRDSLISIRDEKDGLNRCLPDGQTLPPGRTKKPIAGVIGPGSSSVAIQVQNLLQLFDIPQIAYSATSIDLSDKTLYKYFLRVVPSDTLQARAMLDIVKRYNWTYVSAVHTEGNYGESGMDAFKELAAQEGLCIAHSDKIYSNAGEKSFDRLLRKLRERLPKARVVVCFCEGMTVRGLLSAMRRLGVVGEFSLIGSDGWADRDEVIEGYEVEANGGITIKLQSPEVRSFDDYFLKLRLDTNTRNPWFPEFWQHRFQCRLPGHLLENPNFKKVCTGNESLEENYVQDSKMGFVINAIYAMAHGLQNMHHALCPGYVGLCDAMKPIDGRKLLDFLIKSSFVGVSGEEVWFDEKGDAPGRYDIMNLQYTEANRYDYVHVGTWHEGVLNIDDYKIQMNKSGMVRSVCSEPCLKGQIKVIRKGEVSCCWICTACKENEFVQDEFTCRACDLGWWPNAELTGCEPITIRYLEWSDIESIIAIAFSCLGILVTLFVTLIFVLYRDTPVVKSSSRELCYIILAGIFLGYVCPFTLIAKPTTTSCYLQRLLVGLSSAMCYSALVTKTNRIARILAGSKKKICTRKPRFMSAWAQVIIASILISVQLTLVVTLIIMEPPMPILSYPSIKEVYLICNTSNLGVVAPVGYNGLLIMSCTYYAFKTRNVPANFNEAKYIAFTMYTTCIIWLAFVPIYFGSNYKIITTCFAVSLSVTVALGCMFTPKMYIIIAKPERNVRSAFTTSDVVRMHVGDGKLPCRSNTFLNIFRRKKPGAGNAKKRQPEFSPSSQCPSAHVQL
UniProt Q06890, residues 22-448: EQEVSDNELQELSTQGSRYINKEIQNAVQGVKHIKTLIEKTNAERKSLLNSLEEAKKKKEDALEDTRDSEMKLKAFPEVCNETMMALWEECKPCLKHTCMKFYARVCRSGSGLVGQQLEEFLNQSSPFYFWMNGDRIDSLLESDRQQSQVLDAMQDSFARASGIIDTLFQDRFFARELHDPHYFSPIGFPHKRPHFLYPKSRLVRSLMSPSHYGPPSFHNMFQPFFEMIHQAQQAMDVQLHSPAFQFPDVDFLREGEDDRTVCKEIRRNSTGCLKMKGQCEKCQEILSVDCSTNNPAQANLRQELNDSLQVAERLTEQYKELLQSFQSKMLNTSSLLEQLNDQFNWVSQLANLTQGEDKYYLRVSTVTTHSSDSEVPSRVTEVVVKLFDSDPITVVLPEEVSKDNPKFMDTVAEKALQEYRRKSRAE
UniProt P26443, residues 54-558: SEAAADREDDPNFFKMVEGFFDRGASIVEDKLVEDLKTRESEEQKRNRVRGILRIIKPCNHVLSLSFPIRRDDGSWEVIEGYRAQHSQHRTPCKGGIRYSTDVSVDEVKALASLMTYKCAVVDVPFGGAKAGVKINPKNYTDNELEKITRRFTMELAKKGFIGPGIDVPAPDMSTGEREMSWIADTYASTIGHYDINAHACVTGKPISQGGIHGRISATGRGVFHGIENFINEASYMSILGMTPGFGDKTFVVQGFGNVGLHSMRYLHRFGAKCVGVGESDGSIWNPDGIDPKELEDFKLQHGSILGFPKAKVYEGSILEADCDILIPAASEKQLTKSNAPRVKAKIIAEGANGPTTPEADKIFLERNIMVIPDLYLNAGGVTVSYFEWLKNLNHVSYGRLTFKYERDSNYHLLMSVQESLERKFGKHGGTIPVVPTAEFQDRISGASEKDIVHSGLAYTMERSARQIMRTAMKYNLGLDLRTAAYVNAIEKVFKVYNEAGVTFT
UniProt Q9QYS2, residues 23-879: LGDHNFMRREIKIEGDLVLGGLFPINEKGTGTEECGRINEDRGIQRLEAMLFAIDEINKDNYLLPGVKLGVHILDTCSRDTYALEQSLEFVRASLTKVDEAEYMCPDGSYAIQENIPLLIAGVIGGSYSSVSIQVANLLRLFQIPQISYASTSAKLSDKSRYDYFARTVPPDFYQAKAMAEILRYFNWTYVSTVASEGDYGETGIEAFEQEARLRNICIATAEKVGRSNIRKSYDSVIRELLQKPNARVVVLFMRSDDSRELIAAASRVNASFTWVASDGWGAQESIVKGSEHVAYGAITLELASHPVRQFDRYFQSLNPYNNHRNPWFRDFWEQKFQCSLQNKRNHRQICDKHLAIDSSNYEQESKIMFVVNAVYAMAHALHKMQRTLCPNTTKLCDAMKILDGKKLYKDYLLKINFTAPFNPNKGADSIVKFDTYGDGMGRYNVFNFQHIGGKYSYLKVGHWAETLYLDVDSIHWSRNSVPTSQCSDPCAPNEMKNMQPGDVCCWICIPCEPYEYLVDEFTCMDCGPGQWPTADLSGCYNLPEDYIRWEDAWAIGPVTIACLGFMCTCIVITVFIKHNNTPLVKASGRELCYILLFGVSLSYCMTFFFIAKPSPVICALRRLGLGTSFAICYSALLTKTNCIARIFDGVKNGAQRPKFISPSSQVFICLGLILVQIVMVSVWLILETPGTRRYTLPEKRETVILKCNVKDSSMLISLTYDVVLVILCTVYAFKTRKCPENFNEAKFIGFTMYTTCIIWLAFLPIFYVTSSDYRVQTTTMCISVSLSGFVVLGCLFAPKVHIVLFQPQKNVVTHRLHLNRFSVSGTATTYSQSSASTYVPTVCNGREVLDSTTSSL
UniProt P10852: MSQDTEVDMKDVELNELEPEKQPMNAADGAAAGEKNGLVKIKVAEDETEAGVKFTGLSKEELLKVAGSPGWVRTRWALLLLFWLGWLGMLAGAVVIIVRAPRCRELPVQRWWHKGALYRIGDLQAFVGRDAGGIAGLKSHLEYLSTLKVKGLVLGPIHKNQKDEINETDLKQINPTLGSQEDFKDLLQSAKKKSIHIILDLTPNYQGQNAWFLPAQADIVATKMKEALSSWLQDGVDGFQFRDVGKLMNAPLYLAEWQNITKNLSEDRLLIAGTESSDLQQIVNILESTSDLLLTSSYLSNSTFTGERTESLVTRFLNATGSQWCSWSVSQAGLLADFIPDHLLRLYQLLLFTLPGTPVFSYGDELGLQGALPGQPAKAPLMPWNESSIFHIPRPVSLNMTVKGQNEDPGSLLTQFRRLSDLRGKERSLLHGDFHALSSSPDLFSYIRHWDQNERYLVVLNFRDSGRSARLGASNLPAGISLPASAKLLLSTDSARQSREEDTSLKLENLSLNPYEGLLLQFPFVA
UniProt A8DUK4: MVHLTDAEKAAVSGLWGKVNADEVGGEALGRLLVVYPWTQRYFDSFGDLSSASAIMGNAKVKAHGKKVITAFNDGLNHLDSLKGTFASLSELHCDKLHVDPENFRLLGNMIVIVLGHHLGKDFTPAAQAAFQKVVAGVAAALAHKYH

Assays:
[1] = target: metabotropic glutamate receptor 5 (mouse (endogenous in hippocampus and cortex)) (UniProt Q3UVX5); assay: affinity purification with mass spectrometry; IP with anti-mGluR5 polyclonal antibody (10 ug, overnight, 4°C) from 1% n-dodecyl β-D-maltoside extracts (25 mM HEPES pH 7.4, 150 mM NaCl) of mouse hippocampus and cortex, Protein A/G agarose, FASP digestion, LC-MS/MS; mGluR5 knockout mice as negative control; filter: present in ≥3 of 4 WT IPs and ≥10-fold enriched
[2] = target: metabotropic glutamate receptor 5 (mouse (endogenous in hippocampus and cortex)) (UniProt Q3UVX5); assay: affinity purification with mass spectrometry; IP with anti-mGluR5 antibody from equal amounts (2 mg) of P2, microsome and P1 fractions of mouse hippocampus; SDS-PAGE and in-gel digestion, LC-MS/MS; empty bead control
[3] = target: metabotropic glutamate receptor 1, isoform a (mouse (endogenous in hippocampus and cortex)) (UniProt P97772); assay: affinity purification with mass spectrometry; reverse IP with monoclonal anti-mGluR1a antibody (BD Biosciences, clone G209-488) from mouse hippocampus extract, LC-MS/MS; non-mGluR1 antibody as negative control; >10-fold enrichment

| Substance | binding [1] | binding [2] | binding [3] |
| --- | --- | --- | --- |
| metabotropic glutamate receptor 1, isoform b (from UniProt P97772 21-886) | binds | binds | binds |
| metabotropic glutamate receptor 5 (from UniProt Q3UVX5 19-1203) |  |  | binds |
| Clu (from UniProt Q06890 22-448) | binds |  |  |

Continued, values first:

| binding [1] | binding [2] | binding [3] | Substance |
| --- | --- | --- | --- |
| no binding |  |  | Glud1 (from UniProt P26443 54-558) (enzyme) |
| binds | binds |  | metabotropic glutamate receptor 1, isoform a (from UniProt P97772 21-1199) |
| binds |  |  | Grm3 (from UniProt Q9QYS2 23-879) (receptor) |
| no binding |  |  | Slc3a2 (from UniProt P10852 1-526) |
| no binding |  |  | hemoglobin (from UniProt A8DUK4 1-147) |
